From PubChem BioAssay AID662 (National Center for Advancing Translational Sciences (NCATS), 2007)
Where “and” joins values, the source holds several entries; their conditions need not be identical. Identical values can stand only once. This is one part of the list. The main result of the screen is listed elsewhere. These columns were measured beside it and carry no call. Compounds called inactive in the main read-out are mostly missing here. The note in brackets gives the kind of curve behind each potency; many fits are weak.

Assay: Cell signaling CRE-BLA (Fsk stim)
Details: CHO CRE-bla reporter (cAMP response element driving beta-lactamase), forskolin EC10, beta-lactamase ratio; measured here: 460 nm blue channel
In short: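 AC50 values, positive or negative, reflect shifts in EC10 NKH 477-induced CRE-bla reporter activity in CHO cells. Incubation lasted 3 h at 37 °C before CCF4 substrate (2 h, room temperature) and ratiometric 460/530 nm reading.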

| Compound | AC50 |
| --- | --- |
| COc1ccc(CN2CCN(c3ccccc3F)CC2)c(OC)c1 | 0.00398 µM [falling, full curve, poor fit] |
| CCC(=O)c1c(O)n(C2CCCCCC2)c(=O)[nH]c1=O | 25.1 µM [falling, single point] |
| CCOC(=O)c1ncn2c1[C@H]1CCCN1C(=O)c1cc(OC)ccc1-2 | 15.8 µM [rising, partial curve] and 10 µM [rising, partial curve] |
| COc1ccc2c(c1OC)C(=O)OC2c1c(O)n(Cc2ccc(F)cc2)c(=O)[nH]c1=O (stereo unspecified) | 3.16 µM [falling, partial curve] |
| COC(=O)CN1CN(c2ccccc2)C2(CCN(Cc3ccc4ccccc4c3)CC2)C1=O | 31.6 µM [falling, single point] |
| CC(C)C[C@H]1C(=O)N2CCC[C@@H]2[C@]2(O)O[C@](NC(=O)[C@H]3C=C4c5cccc6[nH]cc(c56)C[C@H]4N(C)C3)(C(C)C)C(=O)N12 | 3.98 µM [rising, full curve] |
| Cn1c(C(=O)N2CCC3(CC2)OCCO3)cc2c(=O)n(C)c3ccccc3c21 | 15.8 µM [rising, single point] |
| COc1ccc(C[C@H]2NC[C@H](O)[C@@H]2OC(C)=O)cc1 | 5.01 µM [falling, partial curve, poor fit] |
| COc1ccc(C(=O)c2c(C)n(CCN3CCOCC3)c3cc(I)ccc23)cc1 | 31.6 µM [falling, partial curve] |
| CCOC(=O)C1C(=O)N(C)C2(C)CC1c1cc(OC)ccc1O2 (stereo unspecified) | 0.0316 µM [falling, full curve, poor fit] |
| O=c1[nH]c(=O)n(Cc2ccc(F)cc2)c(O)c1C=NCCN1CCCCC1 | 12.6 µM [falling, partial curve] |
| Cc1ccc(S(=O)(=O)N2CN3CCN(C3)C2)cc1 | 0.501 µM [falling, single point] |
| O=C1C2CCN(CC2)C1Cc1ccc(OCCOc2ccccc2)cc1 (stereo unspecified) | 3.16 µM [rising, single point] |
| CCOC(=O)c1c(C)n(Cc2ccco2)c2ccc(OC)cc12 | 12.6 µM [rising, partial curve] |
| Cc1c2ccncc2c(C)c2c1[nH]c1ccccc12 | 12.6 µM [rising, partial curve] and 5.01 µM [rising, partial curve] |
| CCN1CCN(c2ncnc3ccc(Br)cc23)CC1 | 12.6 µM [falling, partial curve] |
| Fc1ccc2c(c1)nnn2C1CCN(Cc2nnnn2C2CCCCC2)CC1 | 3.98 µM [falling, single point] |
| C[C@]12CC[C@H](O)C[C@@H]1CC[C@H]1[C@H]2CC[C@]2(C)[C@H](C(=O)CO)CC[C@@H]12 | 12.6 µM [rising, partial curve] |
| C=CCn1c(O)c(C(C)=Nc2ccc(C(=O)OCC)cc2)c(=O)[nH]c1=O | 5.01 µM [falling, single point] |
| O=C(Cc1ccccc1)N1CCN(C/C=C/c2ccccc2)CC1 | 5.01 µM [falling, single point] |
| CCCCc1ccc2[nH]cc(CCN)c2c1 | 0.631 µM [falling, partial curve] |

| Compound | AC50 |
| --- | --- |
| CCCCn1c(=O)c(C(=O)Nc2ccccc2S(N)(=O)=O)c(O)c2ccccc21 | 12.6 µM [falling, partial curve] |
| COc1cccc(-c2cc(C(F)(F)F)n3nc(C(=O)N4CCC5(CC4)OCCO5)cc3n2)c1 | 15.8 µM [rising, partial curve] |
| ClC1=C(Cl)C2(Cl)C3C4C=CC(C4)C3C1(Cl)C2(Cl)Cl (stereo unspecified) | 1.58 µM [rising, full curve] |
| C[C@@H](CO)NC(=O)[C@H]1C=C2c3cccc4[nH]cc(c34)C[C@H]2N(C)C1 | 12.6 µM [falling, partial curve, poor fit] |
| O=S(=O)(O)/C(=C\c1ccccc1)c1ccccc1 (tested in a mixture with another compound) | 5.01 µM [rising, single point] |
| CCC(=NCc1ccco1)c1c(O)n(Cc2ccccc2)c(=O)[nH]c1=O | 0.158 µM [rising, partial curve, poor fit] |
| CC1(C)CSC(Nc2ccc(F)c(Cl)c2)=N1 | 3.98 µM [rising, single point] |
| O=C(O)C1(c2ccc(Cl)cc2)CCC1 | 5.01 µM [falling, single point] |
| CCCCCn1c(=O)c(C(=O)Nc2ccncc2)c(O)c2ccccc21 | 2 µM [falling, full curve] |
| CCC[C@@H]1CC2=CC(=O)CC[C@]2(C)[C@@H]2CC[C@@]3(C)[C@H](CC[C@]3(O)CCC(=O)O)[C@H]12 | 12.6 µM [rising, partial curve] |
| NCCc1c[nH]c2ccccc12 | 1 µM [falling, full curve] |
| Cc1cccc(C)c1NC1=NCCCS1 | 3.98 µM [falling, partial curve] |
| CC(N=Cc1c(O)[nH]c(=O)[nH]c1=O)c1ccccc1 (stereo unspecified) | 1.26 µM [falling, full curve] |
| O=S1(=O)CC2(N3CCOCC3)CCCCCCC21 (stereo unspecified) | 0.631 µM [falling, partial curve] |
| COCCOC(=O)c1c(N)n(Cc2ccc(OC)cc2)c2nc3ccccc3nc12 | 10 µM [rising, partial curve] |
| CC(=O)C1=C(O)[C@@H]2[C@@H]3c4c[nH]c5cccc(c45)C[C@@H]3C(C)(C)N2C1=O | 3.16 µM [rising, partial curve] |
| CN1CCC(N(C)c2nc(-c3ccccc3)nc3ccccc23)CC1 | 10 µM [rising, single point] |
| O=C(C1CC(=O)N(C2CCCCC2)C1)N1CCC2(CC1)OCCO2 (stereo unspecified) | 15.8 µM [rising, single point] |
| CCOP(=O)(C#CC(C)(C)C)C(C)(O)c1ccccc1 (stereo unspecified) | 2.51 µM [falling, single point] |
| C=CCn1c(O)c(C=Nc2ccc(OC)cc2C)c(=O)[nH]c1=O | 2.51 µM [rising, partial curve] |
